Source: the supplement of paper PMC10849652
The list shows a part of the results.

Chains of the proteins cited; added tags and fusions are not shown. Lines headed by an entry give the natural chain unless they say otherwise; changes in a name come on top.
UniProt P54108: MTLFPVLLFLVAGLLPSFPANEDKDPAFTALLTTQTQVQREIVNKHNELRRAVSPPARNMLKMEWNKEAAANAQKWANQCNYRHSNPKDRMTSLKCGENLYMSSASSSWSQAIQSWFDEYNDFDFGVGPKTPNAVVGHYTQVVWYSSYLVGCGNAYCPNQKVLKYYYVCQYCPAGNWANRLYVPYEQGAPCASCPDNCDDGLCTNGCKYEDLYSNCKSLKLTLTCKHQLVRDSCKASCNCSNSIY
UniProt Q13620, whole entry, looked up: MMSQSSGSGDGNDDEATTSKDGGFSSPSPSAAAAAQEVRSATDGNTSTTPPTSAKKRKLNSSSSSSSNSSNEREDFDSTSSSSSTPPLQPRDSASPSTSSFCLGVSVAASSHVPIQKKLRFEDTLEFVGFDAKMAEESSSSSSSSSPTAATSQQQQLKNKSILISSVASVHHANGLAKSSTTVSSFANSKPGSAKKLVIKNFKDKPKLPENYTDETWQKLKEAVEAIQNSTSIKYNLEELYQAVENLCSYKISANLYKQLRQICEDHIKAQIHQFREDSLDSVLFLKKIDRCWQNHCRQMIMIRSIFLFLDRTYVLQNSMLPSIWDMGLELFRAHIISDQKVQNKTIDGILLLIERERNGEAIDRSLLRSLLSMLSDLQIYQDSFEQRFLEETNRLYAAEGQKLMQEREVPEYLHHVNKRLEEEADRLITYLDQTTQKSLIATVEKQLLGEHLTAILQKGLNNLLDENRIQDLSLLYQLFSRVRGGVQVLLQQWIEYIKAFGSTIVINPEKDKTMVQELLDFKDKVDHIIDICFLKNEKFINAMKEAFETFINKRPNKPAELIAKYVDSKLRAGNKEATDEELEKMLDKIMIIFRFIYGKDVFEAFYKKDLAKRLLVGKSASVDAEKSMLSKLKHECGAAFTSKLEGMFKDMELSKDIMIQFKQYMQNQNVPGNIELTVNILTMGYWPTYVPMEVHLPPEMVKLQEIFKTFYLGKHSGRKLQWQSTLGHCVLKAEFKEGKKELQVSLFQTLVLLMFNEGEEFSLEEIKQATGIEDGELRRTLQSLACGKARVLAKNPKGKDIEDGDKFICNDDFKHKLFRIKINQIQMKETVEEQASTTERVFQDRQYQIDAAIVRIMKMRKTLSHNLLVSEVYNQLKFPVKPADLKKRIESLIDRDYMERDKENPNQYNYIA
UniProt P48730: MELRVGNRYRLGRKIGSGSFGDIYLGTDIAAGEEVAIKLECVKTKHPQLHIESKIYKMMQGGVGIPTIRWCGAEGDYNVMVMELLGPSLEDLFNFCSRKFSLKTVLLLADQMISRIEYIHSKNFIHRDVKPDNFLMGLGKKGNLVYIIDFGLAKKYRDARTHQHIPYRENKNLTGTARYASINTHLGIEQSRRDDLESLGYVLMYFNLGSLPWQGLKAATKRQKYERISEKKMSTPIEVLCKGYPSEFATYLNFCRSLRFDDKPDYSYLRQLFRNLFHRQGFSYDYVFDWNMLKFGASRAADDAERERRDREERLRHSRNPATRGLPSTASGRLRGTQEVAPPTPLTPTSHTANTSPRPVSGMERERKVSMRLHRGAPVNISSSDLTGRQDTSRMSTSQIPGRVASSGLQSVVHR
UniProt Q9NXE8: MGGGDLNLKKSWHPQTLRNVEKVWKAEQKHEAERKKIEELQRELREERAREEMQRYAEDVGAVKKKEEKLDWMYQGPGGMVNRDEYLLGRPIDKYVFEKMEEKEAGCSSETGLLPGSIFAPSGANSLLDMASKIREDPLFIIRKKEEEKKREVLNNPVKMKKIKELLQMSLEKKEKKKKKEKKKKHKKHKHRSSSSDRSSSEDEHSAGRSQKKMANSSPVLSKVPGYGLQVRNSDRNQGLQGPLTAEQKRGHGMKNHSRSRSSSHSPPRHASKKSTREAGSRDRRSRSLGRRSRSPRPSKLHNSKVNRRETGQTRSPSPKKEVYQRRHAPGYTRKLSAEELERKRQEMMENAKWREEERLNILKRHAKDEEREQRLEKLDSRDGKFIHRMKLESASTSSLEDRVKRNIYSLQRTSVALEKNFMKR
UniProt Q49AN0: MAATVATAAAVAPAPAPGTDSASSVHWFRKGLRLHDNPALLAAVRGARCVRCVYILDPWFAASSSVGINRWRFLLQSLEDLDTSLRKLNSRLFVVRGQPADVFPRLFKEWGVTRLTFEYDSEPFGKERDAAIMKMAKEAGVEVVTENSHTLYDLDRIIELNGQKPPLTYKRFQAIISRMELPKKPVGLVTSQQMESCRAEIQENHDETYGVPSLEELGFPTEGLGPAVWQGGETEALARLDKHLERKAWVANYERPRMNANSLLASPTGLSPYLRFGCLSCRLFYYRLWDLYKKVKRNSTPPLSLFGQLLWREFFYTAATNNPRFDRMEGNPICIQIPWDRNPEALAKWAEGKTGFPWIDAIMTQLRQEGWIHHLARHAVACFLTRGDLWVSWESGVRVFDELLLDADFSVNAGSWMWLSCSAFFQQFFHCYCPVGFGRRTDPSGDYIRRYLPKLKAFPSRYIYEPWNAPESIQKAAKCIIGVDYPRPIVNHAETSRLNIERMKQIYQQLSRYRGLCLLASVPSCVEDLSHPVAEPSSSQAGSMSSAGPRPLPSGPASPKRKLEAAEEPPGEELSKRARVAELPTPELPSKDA
UniProt Q96DE9: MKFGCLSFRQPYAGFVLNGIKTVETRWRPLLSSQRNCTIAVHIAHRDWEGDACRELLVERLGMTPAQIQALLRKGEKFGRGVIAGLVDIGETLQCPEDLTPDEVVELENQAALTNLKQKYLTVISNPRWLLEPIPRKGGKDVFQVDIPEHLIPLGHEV
UniProt Q13948: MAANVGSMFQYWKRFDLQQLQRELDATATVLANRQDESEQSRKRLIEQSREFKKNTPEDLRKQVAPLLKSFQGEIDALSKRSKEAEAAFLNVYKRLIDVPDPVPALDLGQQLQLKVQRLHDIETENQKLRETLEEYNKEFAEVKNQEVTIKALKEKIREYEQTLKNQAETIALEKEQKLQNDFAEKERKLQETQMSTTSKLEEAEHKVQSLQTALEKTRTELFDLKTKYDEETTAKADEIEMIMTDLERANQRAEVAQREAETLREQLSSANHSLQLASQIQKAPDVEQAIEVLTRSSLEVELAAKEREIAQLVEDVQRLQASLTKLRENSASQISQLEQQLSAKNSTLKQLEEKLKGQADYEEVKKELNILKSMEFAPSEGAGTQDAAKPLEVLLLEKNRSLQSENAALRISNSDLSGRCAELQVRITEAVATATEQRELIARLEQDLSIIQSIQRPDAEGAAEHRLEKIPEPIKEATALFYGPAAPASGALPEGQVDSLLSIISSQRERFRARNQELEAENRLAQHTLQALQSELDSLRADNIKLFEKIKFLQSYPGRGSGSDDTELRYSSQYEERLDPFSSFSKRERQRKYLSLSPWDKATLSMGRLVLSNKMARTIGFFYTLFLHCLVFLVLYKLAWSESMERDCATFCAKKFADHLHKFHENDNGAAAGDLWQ
UniProt Q7LFL8: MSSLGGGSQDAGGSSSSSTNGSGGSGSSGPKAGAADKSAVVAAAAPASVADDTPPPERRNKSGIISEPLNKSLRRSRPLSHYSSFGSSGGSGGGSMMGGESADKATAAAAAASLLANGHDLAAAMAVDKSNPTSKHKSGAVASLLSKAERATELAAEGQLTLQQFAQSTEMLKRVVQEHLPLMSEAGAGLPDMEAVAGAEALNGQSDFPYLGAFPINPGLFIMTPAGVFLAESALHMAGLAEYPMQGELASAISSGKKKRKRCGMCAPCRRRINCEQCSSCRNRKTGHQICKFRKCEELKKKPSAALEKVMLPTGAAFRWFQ
UniProt Q9UBG3: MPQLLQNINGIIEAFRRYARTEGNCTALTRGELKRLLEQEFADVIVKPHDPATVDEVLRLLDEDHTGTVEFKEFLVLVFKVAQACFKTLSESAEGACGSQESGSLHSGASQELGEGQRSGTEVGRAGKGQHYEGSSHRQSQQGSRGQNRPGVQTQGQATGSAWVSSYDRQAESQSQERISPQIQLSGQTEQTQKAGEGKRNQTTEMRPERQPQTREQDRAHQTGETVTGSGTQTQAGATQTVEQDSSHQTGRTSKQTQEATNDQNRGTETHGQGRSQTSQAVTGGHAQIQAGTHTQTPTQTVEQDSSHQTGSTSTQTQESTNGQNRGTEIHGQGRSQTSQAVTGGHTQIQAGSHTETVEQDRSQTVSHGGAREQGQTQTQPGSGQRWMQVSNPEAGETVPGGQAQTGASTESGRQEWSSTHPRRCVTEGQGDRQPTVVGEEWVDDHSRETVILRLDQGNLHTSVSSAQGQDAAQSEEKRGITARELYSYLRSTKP
UniProt Q16619: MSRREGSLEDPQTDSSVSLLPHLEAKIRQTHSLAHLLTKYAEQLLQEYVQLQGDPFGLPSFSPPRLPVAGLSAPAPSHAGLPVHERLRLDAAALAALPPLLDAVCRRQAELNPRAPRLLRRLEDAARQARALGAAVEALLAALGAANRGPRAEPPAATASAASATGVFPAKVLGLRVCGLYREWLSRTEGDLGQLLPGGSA
UniProt P01036: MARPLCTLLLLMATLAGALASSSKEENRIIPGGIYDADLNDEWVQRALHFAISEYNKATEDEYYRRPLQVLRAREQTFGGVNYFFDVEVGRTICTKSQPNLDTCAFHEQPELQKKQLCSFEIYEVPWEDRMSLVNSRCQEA
UniProt Q96RY5: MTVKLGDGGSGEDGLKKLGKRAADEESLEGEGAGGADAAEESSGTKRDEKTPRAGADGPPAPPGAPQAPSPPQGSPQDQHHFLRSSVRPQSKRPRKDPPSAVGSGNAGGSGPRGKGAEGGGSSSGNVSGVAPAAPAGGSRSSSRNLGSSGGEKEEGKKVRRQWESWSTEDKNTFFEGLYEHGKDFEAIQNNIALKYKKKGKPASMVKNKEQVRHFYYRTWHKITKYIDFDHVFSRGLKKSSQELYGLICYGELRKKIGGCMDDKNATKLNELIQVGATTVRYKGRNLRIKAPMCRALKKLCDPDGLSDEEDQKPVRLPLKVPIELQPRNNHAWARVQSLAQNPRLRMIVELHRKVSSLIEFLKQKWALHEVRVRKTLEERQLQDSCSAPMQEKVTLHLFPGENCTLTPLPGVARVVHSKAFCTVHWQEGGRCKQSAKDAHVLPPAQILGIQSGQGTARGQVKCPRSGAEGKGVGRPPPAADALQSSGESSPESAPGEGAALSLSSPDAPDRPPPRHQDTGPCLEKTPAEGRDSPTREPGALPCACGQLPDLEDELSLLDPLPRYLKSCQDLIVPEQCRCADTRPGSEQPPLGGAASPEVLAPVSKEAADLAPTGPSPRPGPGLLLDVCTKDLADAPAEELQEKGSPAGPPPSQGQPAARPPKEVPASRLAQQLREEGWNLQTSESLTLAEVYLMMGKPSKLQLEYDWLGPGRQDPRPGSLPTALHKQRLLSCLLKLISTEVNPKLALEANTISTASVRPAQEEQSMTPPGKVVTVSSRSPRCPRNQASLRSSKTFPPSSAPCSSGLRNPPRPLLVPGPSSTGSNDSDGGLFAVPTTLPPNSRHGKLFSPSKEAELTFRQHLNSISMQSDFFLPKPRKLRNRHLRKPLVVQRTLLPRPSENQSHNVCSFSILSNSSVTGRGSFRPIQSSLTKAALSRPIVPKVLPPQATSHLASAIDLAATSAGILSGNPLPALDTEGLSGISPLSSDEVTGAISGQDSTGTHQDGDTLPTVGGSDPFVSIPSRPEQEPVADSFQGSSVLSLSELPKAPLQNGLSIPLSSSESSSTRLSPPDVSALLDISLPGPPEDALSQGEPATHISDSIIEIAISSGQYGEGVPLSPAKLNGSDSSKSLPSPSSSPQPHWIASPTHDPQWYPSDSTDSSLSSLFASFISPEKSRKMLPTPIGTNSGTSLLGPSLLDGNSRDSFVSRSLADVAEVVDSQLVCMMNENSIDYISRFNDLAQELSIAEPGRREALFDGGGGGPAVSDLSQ
UniProt O43310: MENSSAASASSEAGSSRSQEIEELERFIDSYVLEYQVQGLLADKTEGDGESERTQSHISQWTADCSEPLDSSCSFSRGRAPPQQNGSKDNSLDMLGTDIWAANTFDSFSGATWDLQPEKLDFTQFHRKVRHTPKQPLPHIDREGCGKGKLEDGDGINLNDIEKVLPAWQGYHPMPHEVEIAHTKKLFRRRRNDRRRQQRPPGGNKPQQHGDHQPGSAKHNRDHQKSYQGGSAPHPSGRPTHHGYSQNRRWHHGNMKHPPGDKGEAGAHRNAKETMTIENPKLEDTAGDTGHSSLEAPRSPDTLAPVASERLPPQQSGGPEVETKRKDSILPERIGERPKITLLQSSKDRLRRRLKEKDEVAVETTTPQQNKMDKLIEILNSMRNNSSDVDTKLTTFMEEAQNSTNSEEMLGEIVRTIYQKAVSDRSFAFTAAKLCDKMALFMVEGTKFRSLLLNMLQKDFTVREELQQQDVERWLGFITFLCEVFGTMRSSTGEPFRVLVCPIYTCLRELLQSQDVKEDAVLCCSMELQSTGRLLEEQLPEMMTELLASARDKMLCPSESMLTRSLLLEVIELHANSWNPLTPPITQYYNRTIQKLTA

Key:
Test in all cases: log2 fold change, soluble protein after heating vs DMSO (PISA); higher = thermal stabilisation; K562 lysate, 10 uM; active = over 0.2 and 3.5 SD of the protein, either way, in both replicates (recomputed)
[1] = compound: Cc1cn(-c2cc(NC(=O)c3ccc(C)c(Nc4nccc(-c5cccnc5)n4)c3)cc(C(F)(F)F)c2)cn1 [nilotinib]
How it was run: (§1)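 Soluble protein was defined as the supernatant remaining after 21,000xg for 90 min, following pooling of heated aliquots and adjustment to 0.5% NP-40 at 4°C. Before that, crude K562 extract at 1 mg/mL protein in PBS pH 7.4 with 1 mM MgCl2 was treated with 10 μM compound for 30 min and heated for 3 min across 48°C-58°C. Quantification used TMTpro 16plex LC-MS/MS with channel sums equalised, and values are log-two fold changes in thermal stability relative to solvent controls from duplicates.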

[2] = compound: Cc1nc(Nc2n[nH]c3c2CN(C(=O)N[C@H](CN(C)C)c2ccccc2)C3(C)C)c2sccc2n1
How it was run: as §1

[3] = compound: Cc1nc(Nc2ncc(C(=O)Nc3c(C)cccc3Cl)s2)cc(N2CCN(CCO)CC2)n1 [dasatinib]
How it was run: as §1

[4] = compound: Cc1ncc(-c2ccnc(Nc3ccc(S(C)(=O)=O)cc3)n2)n1C(C)C
How it was run: as §1

[5] = compound: Cn1cc(-c2ccc3c(c2)CCN3C(=O)Cc2cccc(C(F)(F)F)c2)c2c(N)ncnc21
How it was run: as §1

[6] = compound: Cn1cc(CNCC2CCN(c3ncc(C(=O)NO)cn3)CC2)c2ccccc21 [quisinostat]
How it was run: as §1

[7] = compound: Cn1cncc1[C@@](N)(c1ccc(Cl)cc1)c1ccc2c(c1)c(-c1cccc(Cl)c1)cc(=O)n2C [tipifarnib]
How it was run: as §1

[8] = compound: NC(=O)Nc1cc(-c2cccc(F)c2)sc1C(=O)N[C@H]1CCCNC1
How it was run: as §1

[9] = compound: NC(=O)c1cnc(N[C@@H]2CCCC[C@@H]2N)nc1Nc1cccc(-n2nccn2)c1
How it was run: as §1

[10] = compound: NC1(c2ccc(-c3nc4ccn5c(=O)[nH]nc5c4cc3-c3ccccc3)cc2)CCC1
How it was run: as §1

[11] = compound: O=C(CCCCCCC(=O)Nc1ccccc1)NO [vorinostat]
How it was run: as §1

[12] = compound: O=C(O)c1ccc2c(c1)nc(Nc1cccc(Cl)c1)c1ccncc12 [silmitasertib]
How it was run: as §1

[13] = compound: O=C1NC(=O)C(c2cnc3ccccn23)=C1c1cn2c3c(cc(F)cc13)CN(C(=O)N1CCCCC1)CC2
How it was run: as §1

[14] = compound: NCC(=O)Nc1ccc(-n2nc(C(F)(F)F)cc2-c2ccc3c(ccc4ccccc43)c2)cc1
How it was run: as §1

[15] = compound: c1cn2cc(-c3ccc4cn[nH]c4c3)nc(Nc3ccc(N4CCOCC4)cc3)c2n1 [entospletinib]
How it was run: as §1

Target | log2 fold change [1] | log2 fold change [2] | log2 fold change [3] | log2 fold change [4] | log2 fold change [5] | log2 fold change [6] | log2 fold change [7] | log2 fold change [8] | log2 fold change [9] | log2 fold change [10] | log2 fold change [11] | log2 fold change [12] | log2 fold change [13] | log2 fold change [14] | log2 fold change [15]
CRIP2 isoform 2 (UniProt P52943) | inactive: 0.06 | inactive: 0.086 | inactive: 0.06 | inactive: -0.237 | inactive: 0.043 | inactive: 0.03 | inactive: -0.075 | inactive: -0.116 | inactive: 0.018 | inactive: -0.226 | inactive: 0.353 | inactive: 0.544 | inactive: 0.074 | – | –
CRISP3 isoform 3 (UniProt P54108) | inactive: -0.115 | inactive: 0.093 | inactive: -0.221 | inactive: -0.041 | inactive: 0.226 | – | inactive: -0.14 | – | – | inactive: 0.889 | inactive: 0.229 | inactive: -0.277 | – | – | –
CUL4B (UniProt Q13620) | inactive: -0.009 | inactive: -0.004 | inactive: -0.001 | inactive: 0.009 | inactive: -0.007 | inactive: 0 | inactive: 0 | inactive: 0.001 | inactive: 0.01 | inactive: -0.022 | inactive: 0.03 | inactive: -0.011 | inactive: -0.018 | inactive: -0.001 | inactive: 0.016
CSNK1D (UniProt P48730) | inactive: 0.199 | inactive: -0.384 | inactive: 0.028 | active: -0.551 | inactive: -0.059 | inactive: -0.049 | inactive: -0.139 | inactive: 0.021 | inactive: 0.072 | – | – | – | inactive: -0.002 | inactive: 0.002 | inactive: -0.076
CUL9 (UniProt Q8IWT3) | inactive: 0.024 | inactive: -0.045 | – | inactive: 0.128 | – | inactive: -0.122 | inactive: -0.012 | inactive: 0.105 | inactive: -0.022 | inactive: 0.082 | inactive: -0.11 | inactive: 0.047 | inactive: 0.23 | – | –
CWC25 (UniProt Q9NXE8) | inactive: -0.031 | inactive: -0.084 | – | inactive: -0.007 | – | inactive: -0.137 | inactive: -0.124 | inactive: 0.086 | inactive: 0.006 | – | – | – | inactive: 0.157 | inactive: 0.052 | inactive: 0
CRY2 (UniProt Q49AN0) | inactive: 0.067 | inactive: -0.043 | – | inactive: -0.035 | – | – | inactive: -0.056 | – | – | – | – | – | – | inactive: -0.022 | –
CXorf40B (UniProt Q96DE9) | inactive: -0.018 | inactive: 0.018 | inactive: -0.052 | inactive: -0.001 | inactive: 0.107 | inactive: 0.075 | inactive: 0.057 | inactive: 0.035 | inactive: 0.112 | – | – | – | inactive: 0.116 | inactive: -0.099 | –
CUX1 isoform 2 (UniProt Q13948) | – | – | inactive: 0.001 | – | inactive: 0.101 | inactive: 0.072 | – | inactive: -0.026 | inactive: -0.073 | inactive: 0.012 | inactive: 0.101 | inactive: 0.086 | inactive: 0.676 | inactive: -0.102 | inactive: -0.077
CXXC5 (UniProt Q7LFL8) | – | – | inactive: -0.115 | – | inactive: -0.156 | – | – | – | – | – | – | – | – | – | –
CRNN (UniProt Q9UBG3) | inactive: 0.059 | inactive: 0.365 | – | inactive: -0.199 | – | – | inactive: -0.449 | – | – | – | – | – | – | inactive: 0.2 | –
CRTC2 (UniProt H0YDQ8) | – | – | – | – | – | – | – | – | – | – | – | – | – | inactive: -0.032 | –
CTF1 (UniProt Q16619) | – | – | inactive: -0.09 | – | inactive: -0.071 | inactive: 0.157 | – | inactive: 0.024 | inactive: 0.077 | inactive: -0.064 | inactive: -0.042 | inactive: -0.039 | inactive: 0.112 | inactive: -0.153 | inactive: -0.193
CST4 (UniProt P01036) | – | – | inactive: -0.007 | – | inactive: 0.141 | – | – | – | inactive: 0.038 | inactive: 0.722 | inactive: -0.015 | inactive: -0.25 | – | – | inactive: -0.159
CRAMP1 (UniProt Q96RY5) | – | – | inactive: 0.025 | – | inactive: -0.193 | – | – | – | – | – | – | – | – | inactive: -0.166 | inactive: -0.077
CTIF (UniProt O43310) | – | – | – | – | – | – | – | – | – | – | – | – | – | inactive: -0.008 | –

In another format: results already given.
Target	log2 fold change [1]	log2 fold change [2]	log2 fold change [3]	log2 fold change [4]	log2 fold change [5]	log2 fold change [6]	log2 fold change [7]	log2 fold change [8]	log2 fold change [9]	log2 fold change [10]	log2 fold change [11]	log2 fold change [12]	log2 fold change [13]	log2 fold change [14]	log2 fold change [15]
CRISP3 isoform 3 (UniProt P54108)	inactive: -0.115	inactive: 0.093	inactive: -0.221	inactive: -0.041	inactive: 0.226	–	inactive: -0.14	–	–	inactive: 0.889	inactive: 0.229	inactive: -0.277	–	–	–
CUL4B (UniProt Q13620)	inactive: -0.009	inactive: -0.004	inactive: -0.001	inactive: 0.009	inactive: -0.007	inactive: 0	inactive: 0	inactive: 0.001	inactive: 0.01	inactive: -0.022	inactive: 0.03	inactive: -0.011	inactive: -0.018	inactive: -0.001	inactive: 0.016
CSNK1D (UniProt P48730)	inactive: 0.199	inactive: -0.384	inactive: 0.028	active: -0.551	inactive: -0.059	inactive: -0.049	inactive: -0.139	inactive: 0.021	inactive: 0.072	–	–	–	inactive: -0.002	inactive: 0.002	inactive: -0.076
